# The supplement of paper PMC3682954
# Counter-ions that a name gives are not always drawn. ± gives the standard deviation of the averaged measurements. The list shows a part of the results. Many values rest on one well or one pass, so single values are uncertain.
# System: RAW 264.7
# Assay: HMGB1-induced TNF-alpha production relative to HMGB1-stimulated control; higher = more TNF-alpha secretion (less inhibition)
# Conditions: stimulus: HMGB1 5 ug/ml, 18 h
# [1] = compound concentration: 1 ug/ml
Compound,HMGB1-induced TNF-alpha production (compound concentration: 3 uM) [%],HMGB1-induced TNF-alpha production [1] [%]
CNC[C@H](O)c1ccc(O)c(O)c1,49.2,
CNC[C@H](O)c1ccc(O)c(O)c1 [(-)-Epinephrine bitartrate],48.4,
CN(C(=O)C(Cl)Cl)c1ccc(OC(=O)c2ccco2)cc1 [Diloxanide furoate],94.5,
CN(C(=O)C(Cl)Cl)c1ccc(OC(=O)c2ccco2)cc1,84.6 ± 8.8,
"Nc1ccn([C@H]2CC[C@@H](CO)O2)c(=O)n1 [2',3' - Dideoxycytidine]",98.4,
"Nc1ccn([C@H]2CC[C@@H](CO)O2)c(=O)n1 [2',3'-dideoxycytidine]",85.3,
Nc1ccn([C@H]2CC[C@@H](CO)O2)c(=O)n1,109,
Nc1ccn([C@H]2CC[C@@H](CO)O2)c(=O)n1 [Zalcitabine],103,
"Nc1ccn([C@H]2CC[C@@H](CO)O2)c(=O)n1 [2',3'-Dideoxycytidine]",,83.2
CCCCCCCCCCCCCCC[C@H](O)[C@H](N)CO (racemic) [DL-erythro-Dihydrosphingosine],89.6,
COc1cccc(-c2cc(=O)c3ccccc3o2)c1N,64.2,
CC(=O)c1ccc2c(c1)N(CCCN(C)C)c1ccccc1S2 [Acetopromazine maleate salt],96.6,
CC(=O)c1ccc2c(c1)N(CCCN(C)C)c1ccccc1S2,81.3,
CN(C)CCOC(C)(c1ccccc1)c1ccccn1 (centres undefined),96 ± 25,
CN(C)CCOC(C)(c1ccccc1)c1ccccn1 (centres undefined) [Doxylamine succinate],81.6 ± 6.9,
Oc1c(I)cc(Cl)c2cccnc12 [Clioquinol],97,
Oc1c(I)cc(Cl)c2cccnc12,80.8,
CC(C)(C#N)c1cc(Cn2cncn2)cc(C(C)(C)C#N)c1 [Anastrozole],102 ± 8.7,
CC(C)(C#N)c1cc(Cn2cncn2)cc(C(C)(C)C#N)c1,107,
COC(=O)Nc1nc2cc(C(=O)c3ccccc3)ccc2[nH]1,112,

Compound,HMGB1-induced TNF-alpha production (compound concentration: 3 uM) [%],HMGB1-induced TNF-alpha production [1] [%]
COC(=O)Nc1nc2cc(C(=O)c3ccccc3)ccc2[nH]1 [Mebendazol],98.4,
COC(=O)Nc1nc2cc(C(=O)c3ccccc3)ccc2[nH]1 [Mebendazole],119,
CC1(C)S[C@@H]2[C@H](NC(=O)[C@H](NC(=O)N3CCNC3=O)c3ccccc3)C(=O)N2[C@H]1C(=O)O,87.8,
CC1(C)S[C@@H]2[C@H](NC(=O)[C@H](NC(=O)N3CCNC3=O)c3ccccc3)C(=O)N2[C@H]1C(=O)O [Azlocillin sodium salt],110,
CCCCCCCCCc1ccc(OCCOCCOCCOCCOCCOCCOCCOCCOCCO)cc1,85.8,
CC(C)c1ccc2oc3nc(N)c(C(=O)O)cc3c(=O)c2c1,98.6,
NC(=O)c1cc[n+](CC2=C(C(=O)O)N3C(=O)[C@@H](NC(=O)[C@@H](c4ccccc4)S(=O)(=O)[O-])[C@H]3SC2)cc1,93.5,
CCCCCCc1ccc(O)cc1O.Nc1c2ccccc2nc2ccccc12,53.1,
CN1CCc2cc(O)c(O)cc2C(c2ccccc2)C1 (centres undefined),122,
Cc1cc2c(cc1S(N)(=O)=O)S(=O)(=O)CCC2,80.1,
Cc1cc2c(cc1S(N)(=O)=O)S(=O)(=O)CCC2 [Meticrane],68.7,
Nc1nc2c(ncn2[C@@H]2O[C@H](CO)[C@@H](O)[C@H]2O)c(=O)[nH]1 [Guanosine],,73.3
Clc1cnccn1 [2-Chloropyrazine],118,
CN1C(C)(C)CCCC1(C)C [Pempidine tartrate],109,
CN1C(C)(C)CCCC1(C)C,72.6,
Cc1onc(-c2c(Cl)cccc2Cl)c1C(=O)N[C@@H]1C(=O)N2[C@@H]1SC(C)(C)[C@@H]2C(=O)O,82.4,
Cc1onc(-c2c(Cl)cccc2Cl)c1C(=O)N[C@@H]1C(=O)N2[C@@H]1SC(C)(C)[C@@H]2C(=O)O [Dicloxacillin sodium salt],58.2,
CN(C)/N=N/c1[nH]cnc1C(N)=O [Dacarbazine],80.5 ± 27,
CN(C)/N=N/c1[nH]cnc1C(N)=O,85.3 ± 4.7,
